This is one part of the list.
System: T1, CTL2-GFP (C. trachomatis L2/434/Bu, GFP-expressing)
T1 construct: L2/434/Bu, GFP-expressing
Set-up: species or system HeLa; Intracellular C. trachomatis growth in HeLa cells, bulk GFP fluorescence relative to DMSO
Conditions: bulk GFP, single well; 28.5 h, 10 µM; inhibitor

**Q.** Which “% of control remaining” value does the source give for `CC(c1ccncc1)N1Cc2cccc(C(=O)O)c2C1=O` (centres unmarked) [CBK291137] here?
**A.** 120.309%

**Q.** `Cn1c(=O)c2c(O)cc(=O)n(Cc3ccccc3)c2n(C)c1=O` [CBK291245] was tested. Which “% of control remaining” value did it give?
**A.** 155.128%

**Q.** For `CC(=O)N1CCn2nc(C(=O)N(CCO)Cc3ccccc3)cc2C1` [CBK306769], which “% of control remaining” value is on record?
**A.** 109.836%

**Q.** How did the “% of control remaining” value turn out when `COC(=O)Cn1c(=O)sc2cccc(Cl)c21` [CBK026076] was run?
**A.** 101.761%

**Q.** With `O=C(NC1Cc2ccccc2C1)c1ccc2ncccc2c1` [CBK200354] as the compound, how does the “% of control remaining” value read?
**A.** 158.816%

**Q.** `O=c1[nH]c2ncc(-c3ccco3)nc2n1Cc1ccc(F)c(Cl)c1` [CBK064393] was tested. Which “% of control remaining” value did it give?
**A.** 78.4198%

**Q.** With `CC(=O)Nc1ccc(-c2ccc(=O)n3c2[C@@H]2C[C@@H](CN(C4CCOCC4)C2)C3)cc1` [CBK289201] as the compound, how does the “% of control remaining” value read?
**A.** 125.945%

**Q.** How did the “% of control remaining” value turn out when `O=c1[nH]c(=O)c2c3c(sc2[nH]1)CCCC3` [CBK027724] was run?
**A.** 96.0277%

**Q.** With `Cc1ccc(S(=O)(=O)CC(=O)N2CCCC3(CCN(Cc4ccccc4)C3)C2)cc1` (centres unmarked) [CBK137098T] as the compound, how does the “% of control remaining” value read?
**A.** 231.323%

**Q.** With `CCCCN1C(=O)N(c2nnc(C(C)(C)C)s2)C(=O)C1c1ccc(Cl)c(Cl)c1` (centres unmarked) [CBK085921] as the compound, how does the “% of control remaining” value read?
**A.** 114.058%

**Q.** Which “% of control remaining” value does the source give for `CCc1nc2ccc(C(=O)N(C)CCN(C)C)cn2c1N(CC)CCOC` [CBK146018] here?
**A.** 110.312%

**Q.** For `COc1cc(NC(=S)NCCN2CCOCC2)c(OC)cc1Cl` [CBK265888], which “% of control remaining” value is on record?
**A.** 114.842%

**Q.** For `N#Cc1ccc(C(=O)NCc2ccc(OC3CCNCC3)cc2)cc1` [CBK036358T], which “% of control remaining” value is on record?
**A.** 117.758%

**Q.** Which “% of control remaining” value does the source give for `O=C(NCc1csc(-c2ccccc2)n1)C(F)(F)F` [CBK092340] here?
**A.** 102.062%

**Q.** `Cc1cccc(=O)n1CCCn1cc(-c2ncc[nH]2)nn1` [CBK307401] was tested. Which “% of control remaining” value did it give?
**A.** 116.598%

**Q.** For `Cc1cc(Nc2ccc(I)cc2)n2ncnc2n1` [CBK027364], which “% of control remaining” value is on record?
**A.** 111.731%

**Q.** `CC(C)[C@H](CO)Nc1nccnc1-c1ccncc1` [CBK089030] was tested. Which “% of control remaining” value did it give?
**A.** 103.688%

**Q.** With `COc1cc(CCN2CCN(C(C)C)CC2)cc(OC)c1OC` [CBK028881C] as the compound, how does the “% of control remaining” value read?
**A.** 112.358%

**Q.** Which “% of control remaining” value does the source give for `Cc1nc2cc(OCc3nc(C(=O)NC4CCNC4=O)co3)ccc2s1` (centres unmarked) [CBK307298] here?
**A.** 112.984%

**Q.** For `CN1CCN(C(=O)c2ccc(-c3cccc(C(=O)NCCO)c3)nc2N(C)C)CC1` [CBK076581], which “% of control remaining” value is on record?
**A.** 100%

**Q.** For `COc1ccccc1C/C(N)=N/OC(=O)COc1cccc2ccccc12` [CBK263012], which “% of control remaining” value is on record?
**A.** 120.138%

**Q.** `O=C1COc2ccccc2CCCC[C@@H]2CN(C(=O)CN3C(=O)CNC3=O)CC[C@H]2N1` [CBK292047] was tested. Which “% of control remaining” value did it give?
**A.** 115.814%

**Q.** With `c1coc(C2N3CCC4(CC3)c3[nH]c5ccccc5c3CCN24)c1` (centres unmarked) [CBK282862] as the compound, how does the “% of control remaining” value read?
**A.** 98.5635%

**Q.** With `COc1ccc(-n2c(SCCc3ccccc3)nnc2-c2ccncc2)cc1` [CBK265618] as the compound, how does the “% of control remaining” value read?
**A.** 100%

**Q.** `CCOC(=O)C1CCN(Cc2cccs2)CC1` [CBK026999] was tested. Which “% of control remaining” value did it give?
**A.** 154.958%

**Q.** Which “% of control remaining” value does the source give for `CCOC(=O)c1ccc(NS(=O)(=O)c2cc(Cl)ccc2Cl)cc1` [CBK077746] here?
**A.** 102.43%

**Q.** With `O=C(O)COc1ccccc1/C=N\N1CCN(Cc2ccccc2Cl)CC1` [CBK020891] as the compound, how does the “% of control remaining” value read?
**A.** 114.682%

**Q.** For `CC(C)c1ccc(CNC(=O)c2ccc3[nH]ccc3c2)cc1` [CBK161754], which “% of control remaining” value is on record?
**A.** 178.286%

**Q.** Which “% of control remaining” value does the source give for `CC1CCCN(CC(O)COCc2ccc3c(c2)OCO3)C1` (centres unmarked) [CBK262830C] here?
**A.** 107.391%

**Q.** Which “% of control remaining” value does the source give for `CC(C)(C)N(Cc1ccccc1)C(=O)Cn1nc(C(=O)O)c2ccccc2c1=O` [CBK297498] here?
**A.** 90.7286%

**Q.** Which “% of control remaining” value does the source give for `CN1CC(C(=O)N2CCCC(c3cc4cccnc4[nH]3)C2)CC1=O` (centres unmarked) [CBK284958] here?
**A.** 131.457%

**Q.** How did the “% of control remaining” value turn out when `CN1CCN(c2cc(N)nc(N)n2)CC1` [CBK266102] was run?
**A.** 167.362%

**Q.** `CCc1nc2ccc(C(=O)N3CCCCC3)cn2c1N(C)CCC(C)C` [CBK146065] was tested. Which “% of control remaining” value did it give?
**A.** 111.377%

**Q.** For `Cc1cc2cc3c(nc2cc1C)OCCNC3` [CBK281939], which “% of control remaining” value is on record?
**A.** 143.761%

**Q.** `O=C(CSCc1c(Cl)cccc1Cl)Nc1ccc(-c2nnc(-c3ccccc3)o2)cc1` [CBK267817] was tested. Which “% of control remaining” value did it give?
**A.** 118.619%

**Q.** How did the “% of control remaining” value turn out when `O=S(=O)(Nc1nnc(Cc2ccc(Cl)cc2)s1)c1ccc(Cl)cc1` [CBK200048] was run?
**A.** 117.526%

**Q.** How did the “% of control remaining” value turn out when `O=C1N(c2cccc(Cl)c2)Cc2nc(=O)[nH]n21` [CBK288430] was run?
**A.** 121.137%

**Q.** How did the “% of control remaining” value turn out when `Oc1ccc(-c2n[nH]c(=S)n2-c2ccccc2)cc1` [CBK014887] was run?
**A.** 113.205%

**Q.** Which “% of control remaining” value does the source give for `c1ccc(Nc2[nH]nnc2-c2ccccc2)cc1` [CBK261015] here?
**A.** 81.2862%

**Q.** `CCC(NC(=O)c1ccc(C#CC2(O)CCCCC2)cc1)C(=O)O` (centres unmarked) [CBK287160] was tested. Which “% of control remaining” value did it give?
**A.** 113.837%

**Q.** For `CC1=C[C@@H](CN2CCC(O)CC2)[C@H](C(C)C)C[C@H]1Cc1nnc(-c2ccccc2)o1` [CBK289220], which “% of control remaining” value is on record?
**A.** 121.378%

Source: publication PMC12040169 (PLOS Biology, 2025)
